Assay results reported in US8449898B2 (priority 2007, dated 2013).
Values joined by “and” are separate entries in the source; they are usually repeats but may differ in a detail not shown here. Equal values may be shown once. Read-outs that look alike come from different tables or passages of the source. At least one read-out could not be matched to a standard name with certainty.

Assays:
[1] = tested on: Phytophthora infestans (the causal agent of tomato late blight); type: in vivo; details: Compound 214 alone
[2] = tested on: Pseudoperonospora cubensis (the causal agent of cucumber downy mildew); assay: Test B: cucumber downy mildew, preventive spray on cucumber seedlings; type: in vivo; details: Compound 214 alone

Q: Which results are given for Cc1cc(C(F)(F)F)nn1CC(=O)N1CCC(c2nc(C3=NO[C@@H](c4c(F)cccc4F)C3)cs2)CC1 [Compound 214, 1-[4-[4-[(5R)-5-(2,6-difluorophenyl)-4,5-dihydro-3-isoxazolyl]-2-thiazolyl]-1-piperidinyl]-2-[5-methyl-3-(trifluoromethyl)-1H-pyrazol-1-yl]ethanone]?
A: TLB Obsd ([1]; 0.0001 ppm): 7% and 17%; TLB Obsd ([1]; 0.001 ppm): 39%; TLB Obsd (observed effect, tomato late blight) ([1]; 0.001 ppm): 56; TLB Obsd ([1]; 0.01 ppm): 94%; TLB Obsd (observed effect, tomato late blight) ([1]; 0.01 ppm): 99; CDM Obsd (observed effect, cucumber downy mildew) ([2]; 0.001 ppm): 21; CDM Obsd ([2]; 0.01 ppm): 68%; CDM Obsd (observed effect, cucumber downy mildew) ([2]; 0.01 ppm): 73
